Measurements: publication doi:10.1101/2020.09.03.281279
No constants are given. Whether binding was seen depends on the method and setting. Some binding calls cover weakened binding; strength is not graded here. Tags and fused reporters may be left off the sequences shown.

T1: YabO with a C-terminal FLAG3-tag (B. subtilis) (UniProt P37557)
T1 sequence: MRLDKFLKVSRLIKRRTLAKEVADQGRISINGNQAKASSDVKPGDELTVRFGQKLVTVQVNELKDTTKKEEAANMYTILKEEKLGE

T2: RqcH C-terminally tagged with a FLAG3 epitope (B. subtilis) (UniProt O34693)
T2 sequence: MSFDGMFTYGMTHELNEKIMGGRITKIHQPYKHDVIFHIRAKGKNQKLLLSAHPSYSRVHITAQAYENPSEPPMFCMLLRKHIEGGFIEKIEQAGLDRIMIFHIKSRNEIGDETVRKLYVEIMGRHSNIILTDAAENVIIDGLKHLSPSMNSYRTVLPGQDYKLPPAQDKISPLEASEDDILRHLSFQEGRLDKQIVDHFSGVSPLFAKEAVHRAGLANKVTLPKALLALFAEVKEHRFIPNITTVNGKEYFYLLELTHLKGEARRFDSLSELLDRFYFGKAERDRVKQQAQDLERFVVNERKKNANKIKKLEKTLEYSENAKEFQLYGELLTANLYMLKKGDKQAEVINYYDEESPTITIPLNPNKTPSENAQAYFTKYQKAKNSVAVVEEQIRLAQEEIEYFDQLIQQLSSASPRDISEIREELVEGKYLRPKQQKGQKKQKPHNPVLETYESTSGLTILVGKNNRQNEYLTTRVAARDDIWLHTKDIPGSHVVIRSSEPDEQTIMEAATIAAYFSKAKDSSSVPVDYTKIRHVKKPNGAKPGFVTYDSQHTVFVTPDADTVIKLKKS

B1: RqcH (endogenous, found in the YabO-FLAG3 pull-out) (protein, UniProt O34693 1-570)
chain: T2 sequence
B2: YabO (endogenous, found in the RqcH-FLAG3 pull-out) (protein, UniProt P37557 1-86)
chain: T1 sequence

Columns and labels:
[1] = target: T1, YabO with a C-terminal FLAG3-tag (B. subtilis); experiment: cryo-EM structure
[2] = target: T2, RqcH C-terminally tagged with a FLAG3 epitope (B. subtilis); experiment: cryo-EM structure

| Binder | binding [1] | binding [2] |
| --- | --- | --- |
| B1 | binds |  |
| B2 |  | binds |
